This is an account of results in PubChem BioAssay AID2685 (National Center for Advancing Translational Sciences (NCATS), 2010).

Structures are written as SMILES. This is one part of the list. Shown are side measurements of this screen, not its main read-out; they come without a call. The list favours compounds with an active or inconclusive main result. The note in brackets gives the kind of curve behind each potency; many fits are weak.

The nature of the test: qHTS Assay for Lipid Storage Modulators in Drosophila S3 Cells.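 On cell number change: cells counted by Cell Tracker Red CMTPX staining in the red channel.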 As to conditions: BODIPY lipid droplet fluorescence, 18-24 h; for cell number change: measured here: cell count max response, cells fed with added oleic acid. A digest of the protocol:
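Laser-scanning cytometry quantifies lipid droplet accumulation (500–530 nm total intensity; droplet/cell object ratio) in oleic acid-fed (400 uM added) Drosophila S3 cells treated with a concentration series. 20 uM Triacsin C defined 100% inhibition.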

The mark [1] stands for this setting: measured here: lipid fluorescence (Fed channel) AC50, cells fed with added oleic acid.
Setting [2] is: measured here: cell number channel AC50, cells fed with added oleic acid.

As usually defined, the AC50 is the concentration giving half of the maximal activity seen. Low readings indicate greater potency, high ones weaker potency. `O=C(O)c1ccccc1SSc1ccccc1C(=O)O`: the AC50 under setting [1] was 0.58 µM [rising, single point].
As to `COc1ccc(NC(=O)COC(=O)c2c3c(nc4ccccc24)CCCC3)cc1Cl`, the cell number change came out at 11%.
With `COc1ccc(COC(=O)c2n[nH]c3ccccc23)cc1F`, the cell number change was -74.8%. In addition, under setting [2], the AC50 was 29.1 µM [falling, single point].
With `COCCCNC(=O)CC(C)c1ccccc1` (configuration not stated), the cell number change was -64.4%. Besides, the AC50 under setting [2] was 18.4 µM [falling, single point]. For the same compound, the AC50 under setting [1] was 29.1 µM [falling, single point].
Turning to `COc1cccc(C(=O)NC2CCN(C(=O)N3c4ccccc4Sc4ccccc43)CC2)c1`, the cell number change is -42.5%. Moreover, the AC50 under setting [2] is 23.1 µM [falling, single point]. Moreover, the AC50 under setting [1] was 29.1 µM [falling, single point].
As to `COc1ccc(CCNc2oc(-c3ccccc3OC)nc2C#N)cc1OC`, the AC50 reads like this: under setting [2], 0.92 µM [rising, full curve]; under setting [1], 1.16 µM [rising, full curve, poor fit].
As to `O=C(CSc1cnc2ccccc2n1)c1ccc(F)cc1`, the cell number change turned out to be 30.9%. The AC50 under setting [2] was 6.51 µM [rising, partial curve].
As for `CC(C)c1ccc(OCc2ccc(C(=O)N(C)C)o2)cc1`, the cell number change is -19.3%. The AC50 under setting [1] was 29.1 µM [falling, single point].
In the case of `Cc1ccc(/C=N/NC(=O)c2nc3nc(C)cc(C)n3n2)cc1`, the cell number change was -5.41%.
For the compound `CCOc1ccc(OCC(=O)Nc2ccc(OC)cc2)cc1`, the cell number change was -11.7%. In addition, the AC50 under setting [2] is 1.46 µM [falling, partial curve]. Also, the AC50 under setting [1] was 6.51 µM [falling, single point].
Regarding `COc1ccc(N(C(=O)c2ccco2)S(=O)(=O)c2cccc([N+](=O)[O-])c2)cc1`, the cell number change is 17.4%. Besides, the AC50 under setting [1] is 0.651 µM [falling, full curve, poor fit].
On to `CC(=O)NC(CC(=O)NNC(=O)C(C)Oc1ccccc1F)c1ccccc1` (configuration not stated), for which the cell number change was -28%. The AC50 under setting [2] was 0.461 µM [falling, full curve, poor fit].
For `COc1ccc(C)cc1Nc1n[n+](-c2ccccc2)c(-c2ccc(N(C)C)cc2)s1`, the cell number change is -10.4%. In addition, the AC50 under setting [2] was 0.058 µM [rising, full curve, poor fit].
As to `Cn1c(=O)c2ccccc2n(CC(=O)NCCC2=CCCCC2)c1=O`, the cell number change came to 10.8%. Also, under setting [1], the AC50 was 0.00517 µM [rising, full curve, poor fit].
As to `CC(C)(C)OC(=O)NCCc1nnc(SCC(N)=O)o1`, the cell number change worked out at 0.296%.
As for `O=C(NC(=O)c1ccccc1)C1=C(N2CCCC2)COC1=O`, the cell number change was -4.33%. The AC50 under setting [1] was 29.1 µM [falling, single point].
Take `COC(=O)c1c(C)[nH]c(C(=O)CSc2ccc(Cl)cc2)c1C`: the cell number change turned out to be 2.43%. Besides, the AC50 under setting [2] is 0.461 µM [rising, full curve]. The AC50 under setting [1] is 0.461 µM [rising, partial curve, poor fit].
As for `Cc1ccc(F)cc1NC(=O)CSCc1nc2sc(C)c(C)c2c(=O)[nH]1`, the AC50 under setting [2] is 4.61 µM [rising, single point].
On the same count and under the same terms, in the case of `O=c1cc(-c2ccc([N+](=O)[O-])cc2)c2ccc(O)cc2o1` it was 0.00517 µM [falling, full curve, poor fit].
`COc1ccc(CNC(=O)C[C@H]2C(=O)N(Cc3ccc(OC)cc3)C[C@@H]2Cc2ccccc2)cc1`: the cell number change was -6.89%. In addition, the AC50 under setting [1] was 6.51 µM [rising, single point].
Turning to `O=C(NNS(=O)(=O)c1ccc(F)cc1)c1ccccc1`, the cell number change was -6.3%. Further, under setting [1], the AC50 is 29.1 µM [rising, partial curve, poor fit].
Consider `O=C(CSc1nnc(-c2ccncc2)n1C1CCCCC1)Nc1ccccc1`, for which the cell number change stood at 33.1%. Besides, under setting [2], the AC50 was 0.13 µM [rising, full curve, poor fit]. Under setting [1], the AC50 is 0.13 µM [rising, full curve, poor fit].
`c1ccc(-c2nnc(CSc3nnc(-c4cccs4)o3)o2)cc1`: the cell number change turned out to be 2.84%. Also, under setting [1], the AC50 was 3.66 µM [rising, partial curve].
Consider `Cc1scc(C(=O)N/N=C/c2ccc(OCC(C)C)cc2)c1C`, for which the AC50 is 1.64 µM [rising, partial curve] under setting [2] and 2.06 µM [rising, partial curve] under setting [1].
Regarding `O=c1cc(O)n(Cc2ccc(F)cc2)c(=O)[nH]1`, the AC50 under setting [1] is 6.51 µM [rising, single point].
With `O=C(COC(=O)c1cc(S(=O)(=O)N2CCOCC2)c(Cl)cc1Cl)c1ccc[nH]1`, the cell number change is -13.3%.
As for `Cc1cc(/C=N/NC(N)=O)c(C)n1C1CCCCC1`, the cell number change came to 91.4%.
Regarding `CCOC(=O)/C(=N\Nc1ccc(Cl)cc1)c1csc(Nc2ccccc2)n1`, the cell number change is -93%. Further, the AC50 under setting [1] is 29.1 µM [falling, single point].
`CC1C(=O)N2CCCc3cc(S(=O)(=O)NCc4ccccc4Cl)cc1c32` (configuration not stated): the cell number change was -12.5%. Under setting [1], the AC50 is 29.1 µM [falling, single point].
As to `O=C(C1CCN(S(=O)(=O)c2ccccc2)CC1)N1CCCCCC1`, the cell number change is -0.578%. Under setting [2], the AC50 was 0.116 µM [rising, full curve, poor fit].
On to `C#C[C@]1(O)CC[C@H]2[C@@H]3CCc4cc(O)ccc4[C@H]3CC[C@@]21C`, for which the cell number change came out at 0.211%. Moreover, the half-maximal activity concentration (AC50) under setting [1] is 5.8 µM [rising, partial curve].
`CCCCN(CCCC)CCC(O)c1cc2c(Cl)cc(Cl)cc2c2cc(C(F)(F)F)ccc12` (configuration not stated): the cell number change was -80.5%. Moreover, under setting [2], the AC50 was 29.1 µM [falling, single point].
For the compound `COc1ccc(OCc2nnc(SCC(=O)N3CCOCC3)o2)cc1`, the cell number change is -44.6%. For the same compound, the AC50 under setting [2] is 11.6 µM [falling, partial curve]. Moreover, the AC50 under setting [1] was 14.6 µM [falling, partial curve].
For the compound `COc1ccc(-c2cn3cccnc3n2)cc1NC(=O)c1ccc(Br)o1`, the cell number change came to 47.1%. Also, the concentration at half-maximal activity (AC50) under setting [2] is 0.00651 µM [rising, full curve, poor fit]. The AC50 under setting [1] is 29.1 µM [rising, partial curve].
With `CC(C)CN(C(=O)c1cccc(F)c1)c1c(N)n(CC(C)C)c(=O)[nH]c1=O`, the cell number change was -5.04%. In addition, the AC50 under setting [1] is 6.51 µM [rising, partial curve, poor fit].
With `CC(C)CC(NC(=O)OC(C)(C)C)c1cn([C@@H](CCC(=O)OC(C)(C)C)C(=O)N2CCN(C(=O)OC(C)(C)C)CC2)nn1` (some centres not stated), the cell number change was -32.2%. Also, under setting [2], the AC50 was 0.411 µM [falling, full curve, poor fit]. Moreover, the concentration at half-maximal activity (AC50) under setting [1] is 1.16 µM [falling, full curve, poor fit].
As for `COc1ccccc1OCC(=O)Nc1c2c(nn1-c1ccc(F)cc1)CS(=O)(=O)C2`, the cell number change was -19%. In addition, the AC50 under setting [1] is 29.1 µM [falling, single point].
Turning to `COc1ccc(-n2cnc3cc(C(=O)NC4CCCC4)ccc32)cc1`, the cell number change is -3.28%. Besides, under setting [2], the AC50 is 6.51 µM [falling, single point]. In addition, the AC50 under setting [1] is 0.82 µM [falling, full curve].
As to `Cc1ccc(-c2nnc(SCC(=O)N3CCOCC3)nc2-c2ccc(C)cc2)cc1`, the cell number change was -17.5%. Further, under setting [1], the AC50 is 18.4 µM [falling, single point].
Consider `Cc1nn(C)c(C)c1S(=O)(=O)N1CCc2ccccc21`, for which the cell number change is 14.4%. Also, the AC50 under setting [1] is 16.4 µM [rising, partial curve, poor fit].
In the case of `O=C(CCC(=O)N1CCN(C(=O)c2ccco2)CC1)c1ccc(F)cc1`, the AC50 under setting [2] is 6.51 µM [rising, single point] and the AC50 under setting [1] is 5.17 µM [rising, single point].
Consider `Cc1ccc(F)cc1NC(=O)c1cccc2nccnc12`, for which the AC50 under setting [2] is 0.116 µM [rising, full curve] and the AC50 under setting [1] is 0.92 µM [rising, partial curve].
Consider `CCOCCCNC(=S)N1CCCN(c2nc3cc(C)c(C)cc3cc2C#N)CC1`, for which the cell number change was -16.6%. For the same compound, under setting [1], the AC50 is 29.1 µM [falling, single point].
For `COc1ccc(Nc2nc(N)nc(SCc3nnc(C)s3)n2)cc1`, the cell number change came out at 10.1%. Under setting [1], the AC50 is 4.61 µM [rising, partial curve].
Turning to `COc1cc(OC)c(OC)cc1CNC(=O)c1cc(=O)c2ccccc2o1`, the cell number change was 8.47%.
As for `O=C(/C=C/c1ccccc1)Nc1scc(-c2ccccc2)c1C(=O)O`, the cell number change amounted to 0.352%. In addition, the concentration at half-maximal activity (AC50) under setting [1] was 0.164 µM [falling, single point].
For `Cc1ccc(Cl)cc1N1CCN(C(=O)Cc2c(C(=O)O)[nH]c3ccccc23)CC1`, the cell number change was -3.17%. The AC50 under setting [1] was 0.092 µM [falling, full curve, poor fit].
For the compound `CCN(CC)C(=O)CC(c1ccc2c(c1)OCO2)c1c(O)cc(OC)cc1OC` (configuration not stated), the cell number change stood at 14.6%. Besides, the AC50 under setting [1] was 6.51 µM [rising, partial curve, poor fit].
Take `O=C(CCN1CCN(c2ccccc2)CC1)NNC(=O)Cc1ccc(Br)cc1`: the cell number change was -30.9%. The concentration at half-maximal activity (AC50) under setting [2] was 32.6 µM [falling, partial curve, poor fit].
In the case of `Cc1ccc(S(=O)(=O)Nc2nc3ccccc3s2)cc1[N+](=O)[O-]`, the cell number change was 4.95%. The AC50 under setting [1] is 0.164 µM [rising, full curve, poor fit].
As to `CCOC(=O)c1ccc(NC(=S)NN2CCOCC2)cc1`, the cell number change stood at 8.48%.
`Cc1nn(C)cc1/C=N\NC(=O)c1ccc2c(c1)c(C)c(C)n2Cc1ccccc1`: the cell number change turned out to be 96.4%. The concentration at half-maximal activity (AC50) under setting [2] is 0.326 µM [rising, full curve]. Further, under setting [1], the AC50 was 1.03 µM [rising, full curve].
With `CCOc1ccc(CCNC(=O)C2(c3ccccc3)CC2)cc1OCC`, the cell number change came to 35.7%. Also, the AC50 under setting [1] is 29.1 µM [rising, single point].
Turning to `CCS(=O)(=O)c1ccc(C(=O)NC)c(Cl)c1Cl`, the cell number change is -38.5%. Also, under setting [2], the AC50 is 7.31 µM [falling, single point].
Consider `S=C1Nc2ccccc2Sc2ccc(Cl)cc21`, for which the half-maximal activity concentration (AC50) under setting [2] is 3.66 µM [falling, partial curve, poor fit].
For the compound `O=C(Nc1cc(Cl)ccc1N1CCOCC1)c1cccnc1`, the cell number change was -11.5%.
On to `COC(=O)[C@H](C)NC(=O)Nc1cc(Cl)ccc1C`, for which the cell number change is -6.43%. For the same compound, the AC50 under setting [1] was 4.11 µM [rising, single point].
On to `COc1ccc(CNC(=O)CCn2c(=O)c3cccn3c3ccc(F)cc32)cc1`, for which the AC50 under setting [1] is 5.17 µM [falling, partial curve].
